Data published in PubChem BioAssay AID2284334 (EPA ToxCast).
The shares of active, inactive and inconclusive entries below differ from those in the screen. How the source made its calls: active means hit-call score of the fitted dose curve at least 0.9, where 1 is the maximum; inconclusive means response in the unintended direction; inactive means score below 0.9. Potencies of inconclusive entries are doubtful fits and often do not repeat.

Amino acid sequences for entries named in this document (tags omitted). A change or cut given only in a name is not applied to a line headed by its entry.
UniProt Q07869: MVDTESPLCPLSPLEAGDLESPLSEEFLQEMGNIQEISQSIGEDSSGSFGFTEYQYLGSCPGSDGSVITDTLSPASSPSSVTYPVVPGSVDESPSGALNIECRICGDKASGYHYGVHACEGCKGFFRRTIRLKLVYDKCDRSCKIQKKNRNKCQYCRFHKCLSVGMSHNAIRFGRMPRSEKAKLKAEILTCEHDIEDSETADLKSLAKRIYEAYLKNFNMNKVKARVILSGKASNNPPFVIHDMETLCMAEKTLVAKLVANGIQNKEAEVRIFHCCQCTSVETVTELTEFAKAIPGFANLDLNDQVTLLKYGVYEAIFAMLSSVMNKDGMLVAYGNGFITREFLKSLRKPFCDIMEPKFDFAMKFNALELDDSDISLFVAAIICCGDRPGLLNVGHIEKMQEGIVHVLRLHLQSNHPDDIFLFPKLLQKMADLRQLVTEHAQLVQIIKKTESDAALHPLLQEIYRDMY

Each compound was assayed against human Peroxisome Proliferator-activated Receptor alpha (PPARa), PPARA (gene 5465) (UniProt Q07869) (assay: ATG_hPPARa_EcoTox2: Attagene TRANS-FACTORIAL EcoTox-2 HepG2 Assay for human Peroxisome Proliferator-activated Receptor alpha (PPARa)).
Description: ATG_EcoTox2 is a cell-based, multiplexed assay created by modifying the existing Attagene TRANS-FACTORIAL system to include a panel of nuclear receptors from some or all the following species: human (Homo sapiens), african clawed frog (Xenopus laevis), rainbow trout (Oncorhynchus mykiss), japanese medaka (Oryzias latipes), and zebrafish (Danio rerio). The ECOTOX2-FACTORIAL format uses HepG2, a human liver cell line, with measurements taken at 24 hours after chemical dosing in a 24-well plate. ATG_hPPARa_EcoTox2 is one of 29 assay components calculated in the ATG_EcoTox2 assay. It is designed to make measurements of mRNA induction, a form of inducible reporter, as detected with fluorescence intensity signals by Reverse transcription polymerase chain reaction (RT-PCR) and Capillary electrophoresis technology.The assay endpoint ATG_hPPARa_EcoTox2 was analyzed in the positive analysis fitting direction relative to DMSO as the negative control and baseline of activity. Using a type of inducible reporter, measures of mRNA for gain-of-signal activity can be used to understand the reporter gene at the transcription factor-level as they relate to the gene PPARa. Furthermore, this assay endpoint can be referred to as a primary readout, because this assay has produced multiple assay endpoints where this one serves a reporter gene function. […]
Human liver HepG2 cells are transiently transfected with multiple reporter transcription units (MRTUs) in 6-well plates using FuGene 6 reagent (Roche; 3 ml FuGene/1 mg DNA). […] A major difference between the CIS and TRANS system is that in CIS activities of endogenous TFs are measured, whereas the TRANS assay evaluates changes in activities of exogenous, chimeric NR-Gal4 proteins. […] The fragments were purified using Qiaquick PCR columns (Qiagen), analyzed on an ABI 3130xL genetic analyzer (Applied Biosystems) with peak positions identified by using a set of X-rhodamine (ROX)-labeled MapMarker1000 molecular weight standards (BioVentures). […]
With `O=P(Oc1ccccc1)(Oc1ccccc1)Oc1ccccc1` the AC50 was inconclusive: 2.37 µM. `CCCCOCN(C(=O)CCl)c1c(CC)cccc1CC` was tested, and the AC50 was inconclusive: 25.8 µM. For `[Cl][Sn]([c]1ccccc1)([c]1ccccc1)[c]1ccccc1`, the AC50 was inconclusive: 0.0908 µM.
